Patent US8895574B2, “Benzyloxypyrimidine derivative, agricultural/ horticultural insecticide comprising derivative and method for using same” (Nihon Nohyaku Co., Ltd., priority 2010, dated 2014)
Some of these results come from one statement about several compounds together. Some ranges recur; such a range may be that of the whole group of compounds.

What follows are compounds tested on brown rice planthopper (Nilaparvata lugens) (assay: Insecticidal effect on brown rice planthopper, rice seedling immersion). Settings: 500 ppm liquid chemical; rice seedlings immersed 30 seconds; third-instar nymphs; eight days after inoculation.
Assay type: in vivo

| Compound | insecticidal effect against brown rice planthopper (mortality, judged by criterion) |
| --- | --- |
| FC(F)(F)c1ccc(COc2ncncc2Oc2ccccc2)cc1 [1-95, 4-(4-trifluoromethylbenzyloxy)-5-phenoxypyrimidine] | A (control efficacy 100%) |
| COc1cncnc1OCc1ccc(C(C)(C)C)cc1 [1-1, 4-(4-t-butylbenzyloxy)-5-methoxypyrimidine] | A (control efficacy 100%) |

Each compound was assayed on green peach aphid (Myzus persicae) (assay: Control efficacy against green peach aphid, foliar spray on potted Chinese cabbage). Settings: 500 ppm liquid chemical sprayed on stalks and leaves of Chinese cabbage; six days after spraying.
Assay type: in vivo

| Compound | insecticidal effect against green peach aphid (control efficacy, judged by criterion) |
| --- | --- |
| CCOc1cc(C(C)(C)C)ccc1COc1ncncc1OC [3-27] | D (control efficacy 79%-50%) |
| COC(=O)C(Oc1ncncc1OC)c1ccccc1 (stereo not drawn) [3-177] | D (control efficacy 79%-50%) |
| CC(C)(C)c1ccc(COc2ncncc2OCC(F)(F)C(F)(F)F)cc1 [3-14] | D (control efficacy 79%-50%) |
| COc1ccccc1Oc1cncnc1OCc1ccc(OC(F)(F)F)cc1 [3-135] | D (control efficacy 79%-50%) |
| COc1cncnc1OCc1ccc(OC2CCCCC2)cc1 [1-225] | D (control efficacy 79%-50%) |
| Cc1ccc(S(=O)(=O)Oc2cncnc2OCc2ccc(C(C)(C)C)cc2)cc1 [3-16] | D (control efficacy 79%-50%) |
| FC(F)(F)Sc1ccc(COc2ncncc2OCC2CCCO2)cc1 (racemic) [3-141] | D (control efficacy 79%-50%) |
| O=C(Oc1cncnc1OCc1ccc(OC(F)(F)F)cc1)c1ccccc1 [1-115] | D (control efficacy 79%-50%) |
| FC(F)(F)Sc1ccc(COc2ncncc2OCc2ccccc2)cc1 [3-144] | D (control efficacy 79%-50%) |
| FC(F)C(F)(F)Oc1ccc(COc2ncncc2OCc2ccccc2)cc1 [1-134] | D (control efficacy 79%-50%) |
| FC(F)(F)c1ccc(COc2ncncc2OC2CCCO2)cc1 (stereo not drawn) [3-78] | D (control efficacy 79%-50%) |
| FC(F)(F)c1ccc(COc2ncncc2Oc2ccccc2)cc1 [1-95, 4-(4-trifluoromethylbenzyloxy)-5-phenoxypyrimidine] | D (control efficacy 79%-50%) |
| CCC(C)Oc1cncnc1OCc1ccc(OC)cc1 (stereo not drawn) [3-230] | D (control efficacy 79%-50%) |
| Cc1ccccc1Oc1cncnc1OCc1ccc(OC(F)(F)F)cc1 [3-134] | D (control efficacy 79%-50%) |
| COc1cncnc1OC(c1ccccc1)C1CC1 (stereo not drawn) [3-170] | D (control efficacy 79%-50%) |
| CC(Oc1cncnc1OCc1ccc(C(F)(F)F)cc1)c1ccccc1 (stereo not drawn) [3-84] | D (control efficacy 79%-50%) |
| FC(F)(F)Oc1ccc(COc2ncncc2OCc2ccccc2)cc1 [3-129] | D (control efficacy 79%-50%) |
| Cc1ccccc1Oc1cncnc1OCc1ccc(C(F)(F)F)cc1 [3-96] | D (control efficacy 79%-50%) |
| COc1cncnc1OC(CSC)c1ccc(Cl)cc1 (stereo not drawn) [3-189] | D (control efficacy 79%-50%) |
| COc1cncnc1OC(c1ccc(C(F)(F)F)cc1)C1CCCC1 (racemic) [3-110] | D (control efficacy 79%-50%) |
| FC(F)(F)c1ccc(COc2ncncc2Oc2cccc(C(F)(F)F)n2)cc1 [3-105] | D (control efficacy 79%-50%) |
| Cc1ccccc1Oc1cncnc1OCc1ccc(C(C)(C)C)cc1 [3-20] | D (control efficacy 79%-50%) |
| COc1ccccc1Oc1cncnc1OCc1ccc(C(C)(C)C)cc1 [3-21] | D (control efficacy 79%-50%) |
| FC(F)(F)c1ccc(COc2ncncc2Sc2ccccc2)cc1 [3-253] | D (control efficacy 79%-50%) |
| CC(C)(C)c1ccc(COc2ncncc2Oc2ccccc2Cl)cc1 [3-18] | D (control efficacy 79%-50%) |
